The list is a part of this screen's results and no random one: it gathers tests that were run many times, whatever their T/C, doses with no T/C, and many T/C values between a quarter and a half above the control. Other doses and runs of a compound stand elsewhere. T/C: endpoint of the treated group in % of that of the vehicle group. Some entries give survivors of the animals treated and no T/C: the source files T/C as zero there, which appears to mark a toxic dose or a test without result, not a measured value. Some survivor counts are full or nearly so, which does not show that the dose was tolerated: the source hardly ever lists a survival T/C far under the control, and the zero likely stands for such cases as well. Counts of survivors are from the toxicity check (mostly the fifth day) where no day follows; animals may have died later. Schedules are NCI's codes, taken here to give the interval after Q, in days (D) or hours (H), and the number of doses after X. Where survival is the endpoint, the PubChem record calls one and a half times the control and up active, and a quarter to a half above the control has no call in these data; cut-offs in other NCI protocols can differ. Some entries hold several experiments; their values stand side by side, smallest first.

This assay deals with CD2F1 mice, L1210 leukemia ip, survival T/C. Kind of assay: NCI In Vivo Anticancer Drug Screen. Data for tumor model L1210 Leukemia (intraperitoneal) in CD2F1 (CDF1) mice. The note with it: higher T/C = longer survival. The method in brief:
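Compound-dosed mice with transplantable tumor versus matched vehicle controls; endpoint ratio T/C reported.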

Where [1] appears, read: T/C endpoint: mean survival time, dose: 50.0 mg/kg/injection, schedule: Q01DX009 (ip), vehicle: other.
Setting [2] is: T/C endpoint: mean survival time, dose: 100.0 mg/kg/injection, schedule: Q04DX002 (ip), vehicle: saline with Tween-80.
Setting [3] is: T/C endpoint: mean survival time, dose: 200.0 mg/kg/injection, schedule: Q04DX002 (ip), vehicle: saline with Tween-80.
Where [4] appears, read: T/C endpoint: mean survival time, dose: 400.0 mg/kg/injection, schedule: Q01DX009 (ip), vehicle: saline with Tween-80.
Setting [5] is: T/C endpoint: mean survival time, dose: 200.0 mg/kg/injection, schedule: Q01DX009 (ip), vehicle: saline with Tween-80.
Where [6] appears, read: T/C endpoint: mean survival time, dose: 400.0 mg/kg/injection, schedule: Q01DX001 (ip), vehicle: saline with Tween-80.
The mark [7] stands for this setting: T/C endpoint: mean survival time, dose: 200.0 mg/kg/injection, schedule: Q04DX003 (ip), vehicle: saline with Tween-80.
[8] abbreviates: T/C endpoint: mean survival time, dose: 400.0 mg/kg/injection, schedule: Q04DX003 (ip), vehicle: saline with Tween-80.
Where [9] appears, read: T/C endpoint: mean survival time, dose: 400.0 mg/kg/injection, schedule: Q04DX002 (ip), vehicle: saline with Tween-80.

Consider `S=P(c1ccccc1)(N1CC1)N1CC1`, for which the T/C (T/C endpoint: mean survival time, dose: 25.0 mg/kg/injection, schedule: Q01DX009 (ip), vehicle: other) was 129 % of control; the T/C (T/C endpoint: mean survival time, dose: 33.0 mg/kg/injection, schedule: Q01DX009 (ip), vehicle: other) is 143 % of control; the T/C under setting [1] is 129 % of control; the T/C under setting [2] was 133 % of control. Besides, the survivor count reads like this: under setting [1], 1 of 3; (T/C endpoint: mean survival time, dose: 112.5 mg/kg/injection, schedule: Q01DX009 (ip), vehicle: other) 2 of 6; (T/C endpoint: mean survival time, dose: 150.0 mg/kg/injection, schedule: Q04DX003 (ip), vehicle: other) 3 of 6; under setting [3], 3 of 3; (T/C endpoint: mean survival time, dose: 225.0 mg/kg/injection, schedule: Q04DX002 (ip), vehicle: other) 6 of 6; (T/C endpoint: mean survival time, dose: 225.0 mg/kg/injection, schedule: Q04DX003 (ip), vehicle: other) 0 of 6. Moreover, under “T/C endpoint: mean survival time, dose: 600.0 mg/kg/injection, schedule: Q01DX001 (ip), vehicle: other”, the survivor count is reported as 3 of 6.
With `CCCCCCOS(=O)OCC(Cl)COC` (stereo unspecified), the survivor count under setting [4] is reported as 5 of 6.
For the compound `COC(=O)c1ccc[n+](CCc2c[nH]c3ccccc23)c1`, the survivor count by setting is: (T/C endpoint: mean survival time, dose: 100.0 mg/kg/injection, schedule: Q01DX009 (ip), vehicle: saline with Tween-80) 6 of 6; under setting [5], 1 of 6; under setting [6], 0 of 6.
Take `Oc1ccccc1C=NCC1CCCC[N-]1.Oc1ccccc1C=NCC1CCCC[N-]1.[Ni+2]` (stereo unspecified): the T/C (T/C endpoint: mean survival time, dose: 200.0 mg/kg/injection, schedule: Q01DX001 (ip), vehicle: saline with Tween-80) was 138 % of control. Further, the survivor count under setting [6] was 2 of 6.
For `Cc1c(CNc2ccc(C(=O)NC(CC(=O)O)C(=O)O)cc2)ccc2nc(N)nc(N)c12` (stereo unspecified), the survivor count runs as follows: (T/C endpoint: mean survival time, dose: 0.78 mg/kg/injection, schedule: Q01DX009 (ip), vehicle: saline) 4 of 6; (T/C endpoint: mean survival time, dose: 1.56 mg/kg/injection, schedule: Q01DX009 (ip), vehicle: saline with Tween-80) 5 of 6; (T/C endpoint: mean survival time, dose: 3.12 mg/kg/injection, schedule: Q01DX009 (ip), vehicle: saline with Tween-80) 4 of 6; (T/C endpoint: mean survival time, dose: 3.12 mg/kg/injection, schedule: Q01DX009 (ip), vehicle: saline) 6 of 6; (T/C endpoint: mean survival time, dose: 6.25 mg/kg/injection, schedule: Q01DX009 (ip), vehicle: saline with Tween-80) 3 of 6; (T/C endpoint: mean survival time, dose: 12.5 mg/kg/injection, schedule: Q01DX009 (ip), vehicle: saline with Tween-80) 2 of 6. The survivor count runs as follows: (T/C endpoint: mean survival time, dose: 12.5 mg/kg/injection, schedule: Q01DX009 (ip), vehicle: saline) 6 of 6; (T/C endpoint: mean survival time, dose: 25.0 mg/kg/injection, schedule: Q01DX009 (ip), vehicle: saline with Tween-80) 2 of 6; (T/C endpoint: mean survival time, dose: 25.0 mg/kg/injection, schedule: Q01DX009 (ip), vehicle: saline) 5 of 6; (T/C endpoint: mean survival time, dose: 100.0 mg/kg/injection, schedule: Q01DX001 (ip), vehicle: saline) 3 of 6. In addition, the T/C (T/C endpoint: mean survival time, dose: 12.5 mg/kg/injection, schedule: Q01DX001 (ip), vehicle: saline) is 135 % of control.
In the case of `CC(=O)Nc1ccc(C(=O)CCl)cc1`, the survivor count (T/C endpoint: mean survival time, dose: 100.0 mg/kg/injection, schedule: Q01DX009 (ip), vehicle: saline) is on record as 0 of 6; the survivor count (T/C endpoint: mean survival time, dose: 200.0 mg/kg/injection, schedule: Q01DX009 (ip), vehicle: saline) is reported as 0 of 6; the survivor count under setting [7] is given as 0 of 6; the survivor count (T/C endpoint: mean survival time, dose: 400.0 mg/kg/injection, schedule: Q01DX009 (ip), vehicle: saline) is 0 of 6; the survivor count under setting [8] is given as 0 of 6.
For the compound `Nc1ccn(C2OC(CO)C(O)C2Br)c(=O)n1` (stereo unspecified), the T/C (T/C endpoint: median survival time, dose: 100.0 mg/kg/injection, schedule: Q01DX005 (ip), vehicle: Klucel (hydroxypropylcellulose) (HPC)) was 130 % of control; the T/C (T/C endpoint: median survival time, dose: 100.0 mg/kg/injection, schedule: Q01DX005 (ip), vehicle: saline) is 138 % of control; the T/C (T/C endpoint: median survival time, dose: 200.0 mg/kg/injection, schedule: Q01DX005 (ip), vehicle: Klucel (hydroxypropylcellulose) (HPC)) is 138 % of control; the T/C (T/C endpoint: median survival time, dose: 400.0 mg/kg/injection, schedule: Q01DX005 (ip), vehicle: Klucel (hydroxypropylcellulose) (HPC)) was 142 % of control.
Turning to `CCN(CC)CCN1C(=O)c2cccc3cccc(c23)C1=O`, the survivor count (T/C endpoint: mean survival time, dose: 200.0 mg/kg/injection, schedule: Q04DX003 (ip), vehicle: saline) is given as 0 of 6.
`CC(=O)O[C@@H]1CO[C@H]2O[C@H]3[C@@H](C(C=O)=C[C@H](O)[C@@H]4C5=C(C(C)C)CC[C@]5(C)CC[C@@]34C)[C@@]2(O)C1=O`: the survivor count reads like this: (T/C endpoint: mean survival time, dose: 12.0 mg/kg/injection, schedule: Q01DX009 (ip), vehicle: Klucel (hydroxypropylcellulose) (HPC)) 2 of 6; (T/C endpoint: mean survival time, dose: 24.0 mg/kg/injection, schedule: Q01DX009 (ip), vehicle: Klucel (hydroxypropylcellulose) (HPC)) 0 of 6.
On to `CC(O)CCC(=O)c1ccoc1` (stereo unspecified), for which the survivor count (T/C endpoint: median survival time, dose: 15.0 mg/kg/injection, schedule: Q03HX015 (ip), vehicle: saline + alcohol) was 1 of 6; the survivor count (T/C endpoint: median survival time, dose: 30.0 mg/kg/injection, schedule: Q03HX015 (ip), vehicle: saline + alcohol) was 0 of 6; the survivor count (T/C endpoint: median survival time, dose: 60.0 mg/kg/injection, schedule: Q03HX015 (ip), vehicle: saline + alcohol) is given as 0 of 6.
For `CCC(c1ccc(OC)cc1)C(CC)c1ccc(O)c(CN2CCN(C)CC2)c1` (stereo unspecified), the survivor count under setting [5] is listed as 4 of 6 and the survivor count under setting [4] is listed as 1 of 6.
Regarding `COc1cc(OC)c(NC(=O)Oc2ccc(SC)cc2)cc1Cl`, for the setting “T/C endpoint: mean survival time, dose: 50.0 mg/kg/injection, schedule: Q01DX009 (ip), vehicle: saline with Tween-80”, the survivor count is on record as 3 of 3.
Consider `O=[N+]([O-])c1ccc2c(c1)C(=Nc1ccc3ccccc3c1)c1ccccc1-2`, for which the survivor count under setting [8] is listed as 5 of 6.
On to `C[N+](C)(C)CCC[n+]1ccc(CCn2ccc3ccccc32)cc1`, for which the survivor count runs as follows: (T/C endpoint: mean survival time, dose: 200.0 mg/kg/injection, schedule: Q01DX001 (ip), vehicle: saline) 0 of 3; (T/C endpoint: mean survival time, dose: 400.0 mg/kg/injection, schedule: Q01DX001 (ip), vehicle: saline) 0 of 3.
For `C1CC2(CCC13CO3)CO2` (stereo unspecified), the T/C under setting [9] was 134 % of control.
Consider `c1ccc(CNCc2ccccc2)cc1`, for which the survivor count (T/C endpoint: mean survival time, dose: 400.0 mg/kg/injection, schedule: Q04DX003 (ip), vehicle: Klucel (hydroxypropylcellulose) (HPC)) is recorded as 1 of 6.
Regarding `CC(C)(C)OC(=O)NNC(c1ccccc1)c1ccccc1`, the survivor count under setting [4] is 4 of 6.
With `CC(=O)OC1CCCC2=CC(=O)CCC21C` (stereo unspecified), the survivor count under setting [8] is on record as 0 of 3.
Consider `Cc1cn([C@@H]2C[C@H](CO)[C@@H](O)C2)c(=O)[nH]c1=O`, for which the T/C is 126 % of control (T/C endpoint: mean survival time, dose: 250.0 mg/kg/injection, schedule: Q01DX009 (ip), vehicle: saline); 129 and 132 % of control (T/C endpoint: mean survival time, dose: 300.0 mg/kg/injection, schedule: Q01DX009 (ip), vehicle: saline).
As for `F[C](F)(F)[Hg][c]1ccccc1`, the survivor count by setting is: under setting [2], 0 of 3; under setting [3], 0 of 3; under setting [9], 0 of 3.
On to `CC(C)C(O)(C(=O)O)C(C)O` (stereo unspecified), for which, for the setting “T/C endpoint: mean survival time, dose: 200.0 mg/kg/injection, schedule: Q01DX009 (ip), vehicle: water”, the survivor count is 6 of 6.
`CS(=O)(=O)OCCN(CCOS(C)(=O)=O)c1cccc([N+](=O)[O-])c1`: the T/C was 131 % of control (T/C endpoint: mean survival time, dose: 30.0 mg/kg/injection, schedule: Q01DX010 (ip), vehicle: saline); 148 % of control (T/C endpoint: mean survival time, dose: 100.0 mg/kg/injection, schedule: Q01DX010 (ip), vehicle: saline); 136 % of control (T/C endpoint: mean survival time, dose: 512.0 mg/kg/injection, schedule: Q01DX001 (ip), vehicle: saline).
`N=C(OC1CCCCC1)C(Cl)(Cl)Cl`: the survivor count under setting [5] was 3 of 3.
Regarding `O=C(O)c1ccc(CBr)cc1CBr`, the survivor count (T/C endpoint: mean survival time, dose: 100.0 mg/kg/injection, schedule: Q04DX003 (ip), vehicle: saline with Tween-80) is recorded as 2 of 6; the survivor count under setting [7] is given as 0 of 6; the survivor count under setting [8] is on record as 0 of 6.

(Values after PubChem BioAssay AID256 (DTP/NCI, 2004).)
